# Test results published in the supplement of paper PMC9135407.
# Several values for one entry are separate records, joined by “and”; a condition that tells them apart may be missing. Equal values may be shown once. Where a name gives a salt, the structure may show the parent alone. ± gives the standard deviation of the averaged measurements. This is one part of the list. Baselines shift from plate to plate; read single values as rough.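 Primary human stellate myofibroblasts activated in culture; inactivation shown by regained lipid droplets. Readout: fraction of Hoechst-counted cells exceeding a per-plate Bodipy threshold, duplicate wells, each plate with DMSO negative and nortriptyline positive controls. Hits: control-normalized score beyond the plate's top-tenth-percentile nortriptyline wells, or among its three best wells. Final well concentrations unstated.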
# Tested on: primary human hepatic stellate cells (donor 1)
# Assay: percent Bodipy-positive cells; higher = more lipid droplet accumulation
# Settings: 48 h
# [1] = library stock concentration: 3.33 mM
# [2] = library stock concentration: 10 mM
# [3] = library stock concentration: 1 mM
# [4] = library stock concentration: 80 uM
# [5] = library stock concentration: 400 uM
# [6] = library stock concentration: 5.3 mM
structure (smiles),measurement,setting,value
Cc1nc2c(-c3cnc(N)nc3)nc(N3CCOCC3)nc2n1C(C)C,percent Bodipy-positive cells,[1],6.05 ± 0.88%
same,percent Bodipy-positive cells,[2],39.2 ± 6.6%
Nc1nccc(Oc2ccc(NC(=O)c3c[nH]cc(-c4ccc(F)cc4)c3=O)cc2F)c1Cl,percent Bodipy-positive cells,[1],8.6 ± 0.3%
same,percent Bodipy-positive cells,[2],25.2 ± 1.8%
CC(=O)[C@@]1(O)CC[C@H]2[C@@H]3CCC4=CC(=O)CC[C@]4(C)[C@H]3CC[C@@]21C [17alpha-hydroxyprogesterone],percent Bodipy-positive cells,[2],38.6 ± 16%
CC(=O)[C@@]1(O)CC[C@H]2[C@@H]3CCC4=CC(=O)CC[C@]4(C)[C@H]3CC[C@@]21C,percent Bodipy-positive cells,[2],35.5 ± 1.6%
COc1ccc(S(=O)(=O)N(CCO)c2ccccc2CN(C)CC=Cc2ccc(Cl)cc2)cc1.O=P(=O)OO.[H] [KN-93 Phosphate],percent Bodipy-positive cells,[2],97.77 ± 0.68%
Cl.N[C@@H](CCC(=O)O)C(=O)O [L-Glutamic acid hydrochloride],percent Bodipy-positive cells,[2],36.7 ± 14%
O=C1C[C@@H]2[C@@H](CC[C@@H](O)CCc3ccccc3)[C@H](O)C[C@@H]2O1 [Latanoprost Lactone Diol],percent Bodipy-positive cells,[3],8.903 ± 0.042%
O=C1NCC2(CCN(CCc3ccccc3)CC2)O1 [Fenspiride HCl],percent Bodipy-positive cells,[1],7.93 ± 2.1%
same,percent Bodipy-positive cells,[2],16.9 ± 4.8%
O=C1NCC2(CCN(CCc3ccccc3)CC2)O1 [Fenspiride hydrochloride],percent Bodipy-positive cells,,46 ± 17%
same,percent Bodipy-positive cells,library stock concentration: 6.7 mM,16.4 ± 0.6%
same,percent Bodipy-positive cells,[2],30% and 53.9%
COc1ccc(/C=C/C(=O)Nc2c(O)cccc2C(=O)O)cc1OC,percent Bodipy-positive cells,[3],18 ± 11%
Clc1ccc2c(c1)CCc1cccnc1C2=C1CCNCC1 [Desloratadine],percent Bodipy-positive cells,[1],51.4 ± 4.5%
same,percent Bodipy-positive cells,[2],95.9 ± 3%
Clc1ccc2c(c1)CCc1cccnc1C2=C1CCNCC1 [Desloratidine],percent Bodipy-positive cells,library stock concentration: 6.4 mM,60.9 ± 2.2%
"COC(=O)c1ccc2c(c1)NC(=O)/C2=C(\Nc1ccc(N(C)C(=O)CN2CCN(C)CC2)cc1)c1ccccc1 [Intedanib (BIBF 1120, Vargatef) (10 mM)]",percent Bodipy-positive cells,[2],88.66 ± 0.034%
CSC(=N)N [S-methyl Isothiourea (hemisulfate)],percent Bodipy-positive cells,[3],7.55 ± 2.2%
CSC(=N)N [S-Methylisothiourea hemisulfate],percent Bodipy-positive cells,[2],26 ± 11%
CN(C)CCOC(c1ccccc1)c1ccccc1.Cn1c(=O)c2[nH]c(Cl)nc2n(C)c1=O [Dimenhydrinate],percent Bodipy-positive cells,,45 ± 8.6%
same,percent Bodipy-positive cells,[2],15.8 ± 4.3%
CN(CCCN1c2ccccc2CCc2ccccc21)CC(=O)c1ccc(Cl)cc1,percent Bodipy-positive cells,[2],37.5 ± 1.2%
CN(CCCN1c2ccccc2CCc2ccccc21)CC(=O)c1ccc(Cl)cc1 [Lofepramine],percent Bodipy-positive cells,[2],30.8 ± 5.1%
CCS(=O)(=O)N1CC(CC#N)(n2cc(-c3ncnc4[nH]ccc34)cn2)C1 [Baricitinib],percent Bodipy-positive cells,[4],13 ± 0.94%
same,percent Bodipy-positive cells,[5],11.5 ± 0.55%
same,percent Bodipy-positive cells,library stock concentration: 2 mM,7.3 ± 4.3%
same,percent Bodipy-positive cells,[2],25.7 ± 9.2%
CCS(=O)(=O)N1CC(CC#N)(n2cc(-c3ncnc4[nH]ccc34)cn2)C1,percent Bodipy-positive cells,[1],6.19 ± 0.8%
same,percent Bodipy-positive cells,[2],12.7 ± 4.2%
CS(=O)(=O)O.Cc1ccc(NC(=O)c2ccc(CN3CCN(C)CC3)cc2)cc1Nc1nccc(-c2cccnc2)n1 [Imatinib],percent Bodipy-positive cells,[2],98.067 ± 0.013%
CCCCCC=CCC=CC=CC=CC(SCC(NC(C)=O)C(=O)O)C(O)CCCC(=O)O (configuration not stated) [N-Acetyl-leukotriene E4],percent Bodipy-positive cells,library stock concentration: 100 uM,18.1 ± 3.6%
O=C(O)CCC/C=C\C[C@@H]1[C@@H](CC[C@@H](O)CCc2cccc(C(F)(F)F)c2)[C@H](O)C[C@@H]1O,percent Bodipy-positive cells,[3],14.5 ± 0.8%
CCCOc1ccc2[nH]c(NC(=O)OC)nc2c1 [Oxibendazole],percent Bodipy-positive cells,library stock concentration: 8 mM,17.7% and 5.52%
same,percent Bodipy-positive cells,[2],45.9 ± 6.3%
Cc1cc2nc3c(=O)[nH]c(=O)nc-3n(C[C@H](O)[C@H](O)[C@H](O)CO)c2cc1C [Riboflavin],percent Bodipy-positive cells,[6],18.1 ± 5.2%
same,percent Bodipy-positive cells,[2],35.59 ± 0.12%
Cc1cc2nc3c(=O)[nH]c(=O)nc-3n(C[C@H](O)[C@H](O)[C@H](O)CO)c2cc1C [Riboflavine],percent Bodipy-positive cells,,19.7 ± 0.51%
CC(C)(CO)Cc1cc(C(C)(C)C)c(O)c(C(C)(C)C)c1,percent Bodipy-positive cells,[2],86.6 ± 2.9%
Cc1[nH]cnc1CN1CCc2c(c3ccccc3n2C)C1=O,percent Bodipy-positive cells,[2],13.6 ± 7.8%
O=C(Nc1ccc2[nH]nc(-c3ccncc3)c2c1)[C@@H]1CCN(CC(=O)N2CCN(c3ccc(-c4ncccn4)cc3)CC2)C1,percent Bodipy-positive cells,[2],77.9 ± 5.2%
O=C(O)CCc1ccc(NCc2cccc(Oc3ccccc3)c2)cc1,percent Bodipy-positive cells,[3],15.7 ± 11%
same,percent Bodipy-positive cells,[1],28.7 ± 1.4%
CC(C)c1ccccc1Cc1cc(C(=O)Nc2ccc(S(=O)(=O)c3ccccc3C(C)(C)C)cc2)c(O)c(O)c1O,percent Bodipy-positive cells,[1],8.23 ± 0.34%
same,percent Bodipy-positive cells,[2],16.7 ± 8.7%
"N=C(N)SCCc1ccc(CCSC(=N)N)cc1 [1,4-PBIT (dihydrobromide)]",percent Bodipy-positive cells,[3],15.2 ± 3.3%
COc1ccc(CN(CCN(C)C)c2ncccn2)cc1 [Thonzylamine hydrochloride],percent Bodipy-positive cells,library stock concentration: 6.2 mM,35.4 ± 13%
same,percent Bodipy-positive cells,[2],41.04 ± 0.079%
O=C(Nc1ccccc1)N[C@@H]1C[C@@H](C(=O)O)Nc2cc(Cl)cc(Cl)c21,percent Bodipy-positive cells,[2],8.34 ± 1.6%
Cc1cc2c(OCC(CNC(C)(C)C)OC(=O)c3ccccc3)cccc2[nH]1 (configuration not stated) [Bopindolol malonate],percent Bodipy-positive cells,[6],9.63 ± 0.77%
Cc1ccc(Sc2ccccc2N2CCNCC2)c(C)c1,percent Bodipy-positive cells,[1],99.28 ± 0.38%
same,percent Bodipy-positive cells,[2],99.35 ± 0.92%
CC[C@@H](C)Nc1cc(C(=O)NC2CC3CCC(C2)N3c2ccc(C(=O)C3CC3)cn2)c(C)cc1C(N)=O (some centres not stated),percent Bodipy-positive cells,[2],88 ± 3.9%
CN1CCC(CNc2ccc3ncc(-c4cccc(OC(F)(F)F)c4)n3n2)CC1,percent Bodipy-positive cells,[4],25.7 ± 0.88%
same,percent Bodipy-positive cells,[5],48.7 ± 23%
same,percent Bodipy-positive cells,[2],90.7 ± 2%

# For convenience, part of the list above.
structure (smiles),measurement,setting,value
Cc1ccc(Sc2ccccc2N2CCNCC2)c(C)c1,percent Bodipy-positive cells,[2],99.35 ± 0.92%
CC[C@@H](C)Nc1cc(C(=O)NC2CC3CCC(C2)N3c2ccc(C(=O)C3CC3)cn2)c(C)cc1C(N)=O (some centres not stated),percent Bodipy-positive cells,[2],88 ± 3.9%
